Reference: PubChem BioAssay AID1259425 (University of Nebraska Medical Center, 2018)
Assay: 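Compare each knockdown with KSR1 silencing using changes in marker transcripts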 (primary screen). Cell system: HCT116 human colon cancer cells. Reagents: siRNA pool against human genes, 50 nM siRNA. Read-out: 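mRNA of six signature genes measured together by branched-DNA assay after 50 nM siRNA pool, blank removed, divided by geometric mean of two housekeeping genes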. Direction: BNIP3L mRNA: higher = more BNIP3L transcript after knockdown.
The whole screen tested about 14,000 reagents; below is an unselected part. Not all columns of the deposit are shown. Not stated in the record: the time to read-out.

| target | PubChem SID | BNIP3L mRNA, set 1 |
| --- | --- | --- |
| IMPA1 (inositol monophosphatase 1) | SID363996436 | 0.0818 |
| TUBE1 (tubulin epsilon 1) | SID363999990 | 0.0579 |
| TNKS (tankyrase) | SID363994814 | 0.098 |
| AHSG (alpha 2-HS glycoprotein) | SID363992848 | 0.0991 |
| LARP6 (La ribonucleoprotein 6, translational regulator) | SID364004975 | 0.0529 |
| MAIP1 (matrix AAA peptidase interacting protein 1) | SID364002842 | 0.153 |
| IER3 (immediate early response 3) | SID363994955 | 0.191 |
| NSFL1C (NSFL1 cofactor) | SID363999907 | 0.179 |
| SDS (serine dehydratase) | SID363997607 | 0.214 |
| KRABD3 (KRAB domain containing 3) | SID364005160 | 0.187 |
| SLC25A22 | SID364002985 | 0.4 |
| TTC7A (tetratricopeptide repeat domain 7A) | SID364005496 | 0.267 |
| RRN3P1 (RRN3 pseudogene 1) | SID364004652 | 0.207 |
| CASP10 (caspase 10) | SID363992515 | 0.134 |
| PDE3A (phosphodiesterase 3A) | SID363992206 | 0.0837 |
| NFAT5 (nuclear factor of activated T cells 5) | SID363997389 | 0.104 |
| MRPL22 (mitochondrial ribosomal protein L22) | SID363998637 | 0.0679 |
| SEPTIN8 (septin 8) | SID364005080 | 0.11 |
| DKFZp566H0824 (retired record) | SID364000344 | 0.0953 |
| RACGAP1 (Rac GTPase activating protein 1) | SID363998400 | 0.0945 |
| TBC1D3F (TBC1 domain family member 3F) | SID364003853 | 0.311 |
| PHAF1 (phagophore assembly factor 1) | SID364003297 | 0.128 |
| BAMBI (BMP and activin membrane bound inhibitor) | SID363998252 | 0.182 |
| FHL1 (four and a half LIM domains 1) | SID363992711 | 0.0883 |
| WNT4 (Wnt family member 4) | SID364003415 | 0.122 |
| ABCG4 (ATP binding cassette subfamily G member 4) | SID364002392 | 0.208 |
| CMTR1 (cap methyltransferase 1) | SID363999273 | 0.109 |
| NCK1 (NCK adaptor protein 1) | SID363996983 | 0.0715 |
| TAF12 (TATA-box binding protein associated factor 12) | SID363996537 | 0.151 |
| KCNK3 (potassium two pore domain channel subfamily K member 3) | SID363993445 | 0.13 |
| HES7 (hes family bHLH transcription factor 7) | SID364004071 | 0.126 |
| ECH1 (enoyl-CoA hydratase 1) | SID363992667 | 0.127 |
| PCDH11Y (protocadherin 11 Y-linked) | SID364004283 | 0.0758 |
| ALKBH3 (alkB homolog 3, alpha-ketoglutarate dependent dioxygenase) | SID364004603 | 0.085 |

Records listed so far whose gene name starts with T or t:
| target | PubChem SID | BNIP3L mRNA, set 1 |
| --- | --- | --- |
| TUBE1 (tubulin epsilon 1) | SID363999990 | 0.0579 |
| TNKS (tankyrase) | SID363994814 | 0.098 |
| TTC7A (tetratricopeptide repeat domain 7A) | SID364005496 | 0.267 |
| TBC1D3F (TBC1 domain family member 3F) | SID364003853 | 0.311 |
| TAF12 (TATA-box binding protein associated factor 12) | SID363996537 | 0.151 |
